These results are taken from PubChem BioAssay AID330 (DTP/NCI, 2004).

The list shows only some results of the screen, not a fair sample: it is rich in T/C values a quarter to a half above the control, in often repeated tests (any T/C) and in doses without a T/C. Further doses and runs are listed elsewhere. T/C: endpoint of the treated group in % of that of the vehicle group. Some entries give survivors of the animals treated and no T/C: the source holds a T/C of zero for them, seemingly a mark for toxic or unscored doses. Some doses without a T/C left all or most animals alive at the check, yet need not have been tolerated: the source hardly ever lists a survival T/C far under the control, and the zero likely stands for such cases as well. Survivors were counted at the toxicity check, usually on the fifth day, unless a day is given; later deaths do not show. Schedule codes are those of the source, taken here to give the interval after Q, in days (D) or hours (H), and the number of doses after X. Some entries were tested several times; the results are listed from low to high. Some molecules as drawn cover several salts, stereoisomers or complexes of the source; a dose is that of the sample tested. For survival time, this PubChem deposit counts one and a half times the control or more as active, and values a quarter to a half above the control carry no call in these data; other NCI protocols may use other cut-offs. Brackets with × count equal records among those shown.

The assay deals with P388 leukemia ip, CD2F1 mice, survival T/C. As to the kind of experiment: NCI In Vivo Anticancer Drug Screen. Data for tumor model P388 Leukemia (intraperitoneal) in CD2F1 (CDF1) mice. Conditions: T/C endpoint: median survival time, higher T/C = longer survival.
Where [1] appears, read: dose: 200.0 mg/kg/injection, schedule: Q01DX005 (ip), vehicle: saline with Tween-80.
Where [2] appears, read: dose: 100.0 mg/kg/injection, schedule: Q01DX009 (ip), vehicle: Klucel (hydroxypropylcellulose) (HPC).
The mark [3] stands for this setting: dose: 200.0 mg/kg/injection, schedule: Q01DX009 (ip), vehicle: Klucel (hydroxypropylcellulose) (HPC).
Where [4] appears, read: dose: 50.0 mg/kg/injection, schedule: Q01DX009 (ip), vehicle: saline.
[5] abbreviates: dose: 200.0 mg/kg/injection, schedule: Q01DX009 (ip), vehicle: saline.
Where [6] appears, read: dose: 200.0 mg/kg/injection, schedule: Q01DX005 (ip), vehicle: Klucel (hydroxypropylcellulose) (HPC).
The mark [7] stands for this setting: dose: 200.0 mg/kg/injection, schedule: Q01DX009 (ip), vehicle: saline with Tween-80.
The mark [8] stands for this setting: dose: 100.0 mg/kg/injection, schedule: Q01DX009 (ip), vehicle: saline with Tween-80.
[9] abbreviates: dose: 25.0 mg/kg/injection, schedule: Q01DX009 (ip), vehicle: saline with Tween-80.
Setting [10] is: dose: 50.0 mg/kg/injection, schedule: Q01DX009 (ip), vehicle: Klucel (hydroxypropylcellulose) (HPC).

Consider `O/N=C\c1cc2ccccc2c[n+]1Cc1ccc2ccc3cccc4ccc1c2c34`, for which the survivor count by setting is: (dose: 25.0 mg/kg/injection, schedule: Q01DX005 (ip), vehicle: saline with Tween-80) 3 of 6; (dose: 50.0 mg/kg/injection, schedule: Q01DX005 (ip), vehicle: saline with Tween-80) 1 of 6; (dose: 100.0 mg/kg/injection, schedule: Q01DX005 (ip), vehicle: saline with Tween-80) 0 of 6; under setting [1], 0 of 6.
On to `Cc1cc(C)c(N)c(Br)c1`, for which the survivor count (dose: 100.0 mg/kg/injection, schedule: Q04DX003 (ip), vehicle: other) was 3 of 6.
Regarding `CC(=O)N/N=C/c1ccccc1[N+](=O)[O-]`, the survivor count (dose: 200.0 mg/kg/injection, schedule: Q01DX009 (ip), vehicle: other) is given as 0 of 6.
In the case of `CN(C)CCOc1cccc2c1CCC2`, where the note is “dose: 240.0 mg/kg/injection, schedule: Q01DX005 (ip), vehicle: saline with Tween-80”, the survivor count is 0 of 6.
With `CCCCCCCCCCCC(O)CCCC(O)CC(O)CC(O)CC1CC=CC(=O)O1` (stereo not drawn), the survivor count under setting [2] was 6 of 6.
As for `O=c1[nH]c2c(cnn2-c2ccc(Cl)cc2)c(=O)n1-c1cccc(Cl)c1`, the survivor count is 4 of 6 under setting [2] and 0 of 6 under setting [3].
Consider `C[N+](C)(C)NP(=O)(N[N+](C)(C)C)Oc1ccccc1`, for which, under “dose: 240.0 mg/kg/injection, schedule: Q01DX005 (ip), vehicle: saline”, the T/C was 128 % of control.
In the case of `CCOC(=O)Oc1ccc[nH]c1=O`, the survivor count under setting [4] is listed as 6 of 6.
Regarding `O=C1SCCC1CO` (stereo not drawn), the survivor count (dose: 100.0 mg/kg/injection, schedule: Q04DX003 (ip), vehicle: saline) is given as 1 of 6.
As for `CSc1ncnc2c1c1c(N)ncnc1n2C1OC(CO)C(O)C1O` (stereo not drawn), the survivor count (dose: 400.0 mg/kg/injection, schedule: Q01DX005 (ip), vehicle: other) was 0 of 3.
Regarding `O=C1CCSC(=S)N1c1ccc(F)cc1F`, the survivor count reads like this: under setting [4], 6 of 6; (dose: 50.0 mg/kg/injection, schedule: Q01DX009 (ip), vehicle: suspension in saline) 6 of 6; (dose: 100.0 mg/kg/injection, schedule: Q01DX009 (ip), vehicle: suspension in saline) 5 of 6.
As for `C(=C\c1cccs1)/c1ccnnc1`, the survivor count was 5 of 6 under setting [4] and 2 of 6 under setting [5].
Take `CC1=COC2CCCCC2O1` (stereo not drawn) (tested in a mixture with another compound): the T/C (dose: 100.0 mg/kg/injection, schedule: Q01DX009 (ip), vehicle: acetone) was 133 % of control.
On to `Cc1cc(N/N=C/c2cccc3ccccc23)c2cc3c(cc2n1)OCO3`, for which the survivor count by setting is: (dose: 50.0 mg/kg/injection, schedule: Q01DX005 (ip), vehicle: Klucel (hydroxypropylcellulose) (HPC)) 1 of 6; (dose: 100.0 mg/kg/injection, schedule: Q01DX005 (ip), vehicle: Klucel (hydroxypropylcellulose) (HPC)) 0 of 6; under setting [6], 0 of 6.
`Cc1c(C=[N+]2CCCCC2)c2ccccc2n1C`: under setting [7], the survivor count is reported as 2 of 6.
For the compound `Cc1cc(N(C)C)nc2cc(N(C)C)ccc12`, the survivor count under setting [8] was 3 of 6 and the survivor count under setting [7] is 3 of 6.
As to `CN1C=C(c2ccccc2)C=C(c2ccccc2)C1S(=O)(=O)O` (stereo not drawn), the survivor count was 0 of 4 and 0 of 6 (dose: 50.0 mg/kg/injection, schedule: Q01DX005 (ip), vehicle: saline + Tween-80 + alcohol); 0 of 6 (dose: 100.0 mg/kg/injection, schedule: Q01DX005 (ip), vehicle: saline + Tween-80 + alcohol); 0 of 6 (dose: 200.0 mg/kg/injection, schedule: Q01DX005 (ip), vehicle: saline + Tween-80 + alcohol).
As for `O=[N+]([O-])c1ccc(O)c(/C=N\NS(=O)(=O)c2ccc(F)cc2)c1`, the survivor count under setting [1] is listed as 1 of 6.
As to `CSC(SC)=C1C(=O)NC(=O)NC1=O`, the T/C under setting [9] is 126 % of control. Moreover, the survivor count is given as 3 of 6 under setting [4]; 0 of 6 (dose: 100.0 mg/kg/injection, schedule: Q01DX009 (ip), vehicle: saline); 0 of 5 under setting [6]; 0 of 6 under setting [5].
For `N#CC1(OC2OC(CO)C(O)C(O)C2O)C=CC(O)C1` (stereo not drawn), the survivor count (dose: 200.0 mg/kg/injection, schedule: Q01DX005 (ip), vehicle: saline) was 1 of 6.
For `O=C1OS(=O)(=O)c2cc3c(cc21)C1C(C2C3C3(Cl)C(Cl)=C(Cl)C2(Cl)C3(Cl)Cl)C2(Cl)C(Cl)=C(Cl)C1(Cl)C2(Cl)Cl` (stereo not drawn), the survivor count under setting [5] was 3 of 6.
As for `O=[N+]([O-])c1cccc2ccc(N/N=C/c3ccccc3O)nc12`, the survivor count runs as follows: (dose: 25.0 mg/kg/injection, schedule: Q01DX009 (ip), vehicle: Klucel (hydroxypropylcellulose) (HPC)) 3 of 6; under setting [10], 5 of 6; under setting [3], 5 of 6; (dose: 400.0 mg/kg/injection, schedule: Q01DX009 (ip), vehicle: Klucel (hydroxypropylcellulose) (HPC)) 6 of 6.
As to `CC[C@]1(O)CN2CCc3c([nH]c4ccccc34)[C@@](C(=O)OC)(c3cc4c(cc3OC)N(C)[C@H]3[C@@](O)(C(=O)OC)[C@H](OC(C)=O)[C@]5(CC)C=CCN6CC[C@]43[C@@H]65)C[C@H](C2=O)[C@H]1O`, the T/C (dose: 32.0 mg/kg/injection, schedule: Q01DX001 (ip), vehicle: water) was 127 % of control (2×); the T/C (dose: 64.0 mg/kg/injection, schedule: Q01DX001 (ip), vehicle: water) was 132 and 136 % of control. Besides, under “dose: 256.0 mg/kg/injection, schedule: Q01DX001 (ip), vehicle: water”, the survivor count is recorded as 3 of 6.
Turning to `COc1ccc(C2CC3CCC(C2O)N3C)cc1` (stereo not drawn), the survivor count under setting [6] is 0 of 6.
As for `COc1cccc(O)c1O`, where the note is “dose: 600.0 mg/kg/injection, schedule: Q01DX009 (ip), vehicle: saline”, the survivor count was 1 of 6.
`Cc1ccc(S(=O)(=O)N2C(=O)CCC2=O)cc1`: the survivor count (dose: 400.0 mg/kg/injection, schedule: Q04DX003 (ip), vehicle: Klucel (hydroxypropylcellulose) (HPC)) is 2 of 6.
`[Br][Sn]([Br])([CH2]c1ccccc1)[c]1ccccc1`: where the note is “dose: 12.5 mg/kg/injection, schedule: Q04DX003 (ip), vehicle: saline with Tween-80”, the T/C was 134 % of control. Besides, the survivor count was 2 of 6 (dose: 25.0 mg/kg/injection, schedule: Q04DX003 (ip), vehicle: saline with Tween-80); 0 of 6 (dose: 100.0 mg/kg/injection, schedule: Q04DX003 (ip), vehicle: saline with Tween-80); 0 of 6 (dose: 200.0 mg/kg/injection, schedule: Q04DX003 (ip), vehicle: saline with Tween-80); 0 of 6 (dose: 400.0 mg/kg/injection, schedule: Q04DX003 (ip), vehicle: saline with Tween-80).
Take `O=C1c2ccc([N+](=O)[O-])cc2C(=O)N1CC[P+](c1ccccc1)(c1ccccc1)c1ccccc1`: the survivor count was 2 of 6 (dose: 50.0 mg/kg/injection, schedule: Q01DX009 (ip), vehicle: water); 0 of 6 (dose: 100.0 mg/kg/injection, schedule: Q01DX009 (ip), vehicle: water); 0 of 6 (dose: 200.0 mg/kg/injection, schedule: Q01DX009 (ip), vehicle: water); 0 of 6 (dose: 400.0 mg/kg/injection, schedule: Q01DX009 (ip), vehicle: water).
For the compound `COc1ccc(C(=O)[Se][Se]C(=O)c2ccc(OC)cc2)cc1`, the survivor count is listed as 6 of 6 under setting [9]; 0 of 6 (dose: 50.0 mg/kg/injection, schedule: Q01DX009 (ip), vehicle: saline with Tween-80); 0 of 6 under setting [8]; 0 of 6 under setting [7].
On to `Cc1ccc2c(=O)[nH]cnc2c1`, for which, under setting [10], the T/C is 128 % of control.
For `CCOC1(OCC)Oc2c(c3ccccc3c3ccccc23)/C1=C1\c2c(c3ccccc3c3ccccc23)OC1(OCC)OCC`, under setting [1], the survivor count is given as 6 of 6.
Regarding `Clc1cc(-c2csc(Cl)c2)cs1`, the survivor count under setting [8] was 6 of 6.
